About 780 (0.22%) of roughly 360,000 compounds were called active. Inconclusive means that the source gave no clear call. Such entries were picked first, then a sample of the others. No stated cut-off is given here; in the data, active means inhibition above about 35% (passing the limit was not always enough); inconclusive means no clear call, values can overlap the other calls.
test system: Botulinum neurotoxin type F light chain protease (Clostridium botulinum); assay: BoNT/F light chain protease inhibitors, primary screen, biochemical, flow cytometry, MLPCN library (AID 588497); conditions: Multiplex microsphere protease cleavage assay, at 10 µM, hits give high values; further: plate controls were buffer without enzyme for full effect and enzyme alone for no effect

Row | Structure (SMILES) | inhibition
1 | CC(=O)Nc1ccc(NC(=O)CSc2nnc(NC(=O)c3ccccc3F)s2)cc1 | inactive: -1.2%
2 | O=C(O)c1c[nH]c2ccc(S(=O)(=O)N3CCOCC3)cc12 | inconclusive: 15.9%
3 | COc1ccc(Cl)cc1CSc1ncn[nH]1 | inconclusive: -11.7%
4 | COc1cccc(C(NC(C)=O)c2nc(-c3ccncc3)cs2)c1 (centres undefined) | inactive: -2.8%
5 | COC(=O)c1ccccc1-c1ccc(/C=N/Nc2nc(N3CCCC3)nc(N3CCCC3)n2)o1 | inconclusive: -74.3%
6 | CCN(CC)CC(=O)NN(Cc1ccccc1)c1ccccc1 | inconclusive: 44.4%
7 | CN(c1ccccc1C(=O)Nc1ccc(S(=O)(=O)N2CCCC2)cc1)S(C)(=O)=O | inactive: 9.3%
8 | COc1ccc2nc(C)cc(Nc3cccc(C(=O)O)c3)c2c1 | inconclusive: -25.2%
9 | CCCC(=O)Nc1nnc(-c2ccc3c(c2)OCO3)s1 | inconclusive: 30.4%
10 | Clc1ccc(-c2onc3c2CCCC3)cc1 | inconclusive: 1.4%
11 | O=C(N/N=C/c1ccc(O)cc1)c1cc(-c2ccc3c(c2)OCO3)n[nH]1 | inactive: -0.4%
12 | Cc1ccc(CN(C(=O)C(F)(F)F)C(C(=O)NC2CCCCC2)c2ccco2)cc1 (centres undefined) | inconclusive: 23.8%
13 | CC(C)NC(=O)CSc1nnc(-c2ccc3ncccc3c2)n1C | inconclusive: 31%
14 | CC(C)c1ccc(N=Cc2c(O)n(C3CC3)c(=S)[nH]c2=O)cc1 | inconclusive: -18.2%
15 | COc1ccc(-c2c[n+]3c4n2CCCCC4=C(c2ccccc2)C3)cc1 | inactive: -76.9%
16 | O=C(Nn1c(O)c(C=C2N=c3ccccc3=N2)sc1=S)c1ccccc1 | active: 65.3%
17 | Cc1cc(Cl)ccc1C(O)c1ncc(-c2cccc3ccccc23)[nH]1 (centres undefined) | inactive: -7.6%
18 | CC(C)(C)c1cc(OC(=O)Cc2ccccc2)ccc1O | inconclusive: -28%
19 | Cc1ccc(-c2cc(-c3ccco3)c(C#N)c(=O)[nH]2)cc1 | inconclusive: 58.7%
20 | O=C(NNc1ccc(Cl)cc1)C1CCC1 | inconclusive: 35.7%

Row | Structure (SMILES) | inhibition
21 | Cc1ccc(S(=O)(=O)CCSc2ccc(C(F)(F)F)cn2)cc1 | active: 35.6%
22 | CC(C)CN(C(=O)COC(=O)c1ccc([N+](=O)[O-])s1)c1c(N)n(Cc2ccccc2)c(=O)[nH]c1=O | inconclusive: 3.7%
23 | O=C(O)c1ccccc1C(=O)NC1CCCCNC1=O (centres undefined) | inconclusive: 6.3%
24 | COCCCNC(=O)c1ccccc1Oc1ccccc1 | inconclusive: -15%
25 | C=CCOc1ccc2c(OC)c3ccoc3nc2c1OC | inactive: 15.1%
26 | Cc1ccc(CN2CCN(Cc3cc4ccccc4o3)CC2CCO)cc1 (centres undefined) | inconclusive: -17.7%
27 | Cc1cccc(NC(=O)C2C3CCCCC32)c1 (centres undefined) | inconclusive: 27.2%
28 | Cc1cc(NC(=O)Nc2cccc(Cl)c2)n(-c2ccccc2)n1 | inconclusive: 80.6%
29 | CCCOc1ccc(CSC(=N)N)cc1C(=O)OC | inconclusive: -6.8%
30 | CC(=O)NS(=O)(=O)c1ccc2c(c1)C(=O)c1cc(S(=O)(=O)NC(C)=O)ccc1-2 | inconclusive: -4.4%
31 | NS(=O)(=O)c1ccc(CCNC(=O)c2cc3ccccc3oc2=O)cc1 | inconclusive: -21.1%
32 | Cc1cc(C)nc(NC(=O)c2c(F)c(F)c(F)c(C(=O)Nc3cc(C)cc(C)n3)c2F)c1 | inconclusive: -20.2%
33 | c1ccc(CCn2c(SCc3ccccc3)nnc2-c2ccncc2)cc1 | inactive: 9.5%
34 | CCOC(=O)c1cc(NC(=O)CC(C)(C)CC(=O)O)ccc1N1CCCCC1 | inconclusive: -17.3%
35 | O=C(O)c1ccc(N2C(=O)CC(N3CCN(c4ccc(Cl)cc4)CC3)C2=O)cc1 (centres undefined) | inconclusive: -17.8%
36 | O=C(O)c1ccccc1C(=O)NCCCn1ccnc1 | inconclusive: 7.7%
37 | CSc1sc(C(=O)N2CCCCC2)c(-c2cccs2)c1C#N | inconclusive: 51.8%
38 | COc1ccc(-c2ccc(C(=O)N3CCOCC3)c3occc23)c(C)c1 | inactive: -8.5%
39 | O=C(c1ccc(F)cc1)N1CCCC(C(=O)N2CCN(c3ccccc3)CC2)C1 (centres undefined) | inconclusive: -34.5%
40 | COCCCN(Cc1ccccn1)S(=O)(=O)Cc1ccccc1 | inconclusive: -44.3%

Row | Structure (SMILES) | inhibition
41 | Cc1cc(OCC(=O)Nc2ccncc2)ccc1Cl | inconclusive: 2.6%
42 | COc1ccc(N/C=C\C(=O)c2ccc3ccccc3c2)cc1 | inconclusive: -17.1%
43 | O=C(NC1CCCCC1)C(c1ccco1)N(C(=O)c1csnn1)c1ccc(Cl)cc1 (centres undefined) | inactive: 7.4%
44 | COc1ccc(/C=N/NC(=O)c2cc(C)oc2C)cc1OC | inconclusive: 94.7%
45 | O=C(COc1ccc(S(=O)(=O)N2CCCC2)cc1)NCc1ccco1 | inconclusive: -2.1%
46 | O=C1N=C(N2CCOCC2)S/C1=C\c1ccccc1OS(=O)(=O)c1ccccc1 | inconclusive: 4.5%
47 | Cc1cc(C)c(NC(=O)CN2CCN(c3ccccn3)CC2)c(C)c1 | inconclusive: 2.1%
48 | Cc1nc(-c2nc(-c3c(C(=O)NNC(=O)Nc4ccccc4)noc3C)cs2)cs1 | inconclusive: 109%
49 | CN(c1cccc(Cl)c1)S(=O)(=O)c1cccc(C(=O)NN2CCOCC2)c1 | inactive: 0%
50 | CCN(Cc1ccc(OC)c(COC)c1)CC1CCCN(CCc2cccc(F)c2)C1 (centres undefined) | inconclusive: -2.1%
51 | CCOc1cc(C)c(S(=O)(=O)NCc2ccccn2)cc1C | inconclusive: -7.6%
52 | O=C1NC(=O)C(Nc2cccc3ccccc23)S1 (centres undefined) | inactive: 3.8%
53 | CC(=O)N1N=C(c2ccccc2)CC1c1ccccc1 (centres undefined) | inconclusive: 13.3%
54 | COc1ccccc1C(CNC(=O)c1ccc(OCc2c(C)noc2C)cc1)N1CCCC1 (centres undefined) | inactive: -3.7%
55 | N#CC(C#SN)=C1CCCCC1 | inconclusive: -2.3%
56 | CCN(CC)CCN(C(=O)c1ccc2ncsc2c1)c1nc2cc3c(cc2s1)OCO3 | inactive: -3.9%
57 | O=C(CN1CCN(CC(=O)c2ccc(F)cc2)CC1)Nc1ccccc1Cl | inconclusive: -32%
58 | COC(=O)[C@@H](NC(=O)NCCC1=CCCCC1)C(C)C | inconclusive: 27.8%
59 | Cc1nc(SCCO)c([N+](=O)[O-])[nH]1 | inconclusive: -37.1%

Four records drawn at random from the list so far:
Row | Structure (SMILES) | inhibition
36 | O=C(O)c1ccccc1C(=O)NCCCn1ccnc1 | inconclusive: 7.7%
33 | c1ccc(CCn2c(SCc3ccccc3)nnc2-c2ccncc2)cc1 | inactive: 9.5%
55 | N#CC(C#SN)=C1CCCCC1 | inconclusive: -2.3%
44 | COc1ccc(/C=N/NC(=O)c2cc(C)oc2C)cc1OC | inconclusive: 94.7%
